The nature of the data set: solution-phase peptide synthesis; DEPCN/DIPEA; Boc-Val-N-carboxyanhydride. The note with it: whole synthesis, scale 2 mmol.

In turn, “N,N-dimethylvaline-Val-N(CH3)-CH[CH(CH3)2]-CH(OCH3)-CH2-CO-phenylalaninamide” yielded an isolated mass of 0.46 g.

The values are drawn from patent US5502032 (dated 1996).
